Reference: US6962713B2, “Spot-on formulations for combating parasites” (Merial, priority 1919, dated 2005)
Values joined by “and” are separate entries in the source; they are usually repeats but may differ in a detail not shown here. Equal entries are not always repeated. This continues a long series; more values of the same kind are listed elsewhere.

Experiment: Plasma kinetics of ivermectin after oral administration of Cardomec to dogs
Type: in vivo, dog
Conditions: Cardomec oral 6 μg.kg^−1, fasted dogs, individual dogs
Method: Five male Beagle dogs received a dose of approximately 6 μg.kg^−1 of ivermectin, i.e., one 68 μg Cardomec® tablet per dog. The animals were fasted prior to administration and up to 6 hours after treatment to prevent a possible interaction with food.
Blood samples were collected at intervals up to 28 days post-dosing. The determination of ivermectin in dog plasma was carried out by HPLC using fluorescence detection after derivatization. The limit of quantification was 100 pg.ml^−1.

Substance: ivermectin
- Plasma concentrations of ivermectin (0 h): BLQ (Below the Limit of Quantification (100 pg.ml^−1))
- Plasma concentrations of ivermectin (0.75 h): BLQ (Below the Limit of Quantification (100 pg.ml^−1)) (3×) and 197 pg.ml^−1 and 400 pg.ml^−1
- Plasma concentrations of ivermectin (1.5 h): 228 pg.ml^−1 and 594 pg.ml^−1 and BLQ (Below the Limit of Quantification (100 pg.ml^−1)) (2×) and 1856 pg.ml^−1
- Plasma concentrations of ivermectin (3 h): 2964 pg/mL and 629 pg/mL and 108 pg/mL and 1871 pg/mL and 422 pg/mL
- Plasma concentrations of ivermectin (4 h): 2554 pg/mL and 475 pg/mL and 143 pg/mL and 1955 pg/mL and 363 pg/mL
- Plasma concentrations of ivermectin (6 h): 2238 pg/mL and 462 pg/mL and 219 pg/mL and 1584 pg/mL and 277 pg/mL
- Plasma concentrations of ivermectin (8 h): 1499 pg/mL and 416 pg/mL and 327 pg/mL and 1379 pg/mL and 226 pg/mL
- Plasma concentrations of ivermectin (10 h): 1379 pg/mL and 758 pg/mL and 534 pg/mL and 1136 pg/mL and 183 pg/mL
- Plasma concentrations of ivermectin (12 h): 1374 pg/mL and 911 pg/mL and 557 pg/mL and 902 pg/mL and 170 pg/mL
- Plasma concentrations of ivermectin (24 h): 875 pg/mL and 626 pg/mL and 347 pg/mL and 650 pg/mL and 125 pg/mL
- Plasma concentrations of ivermectin (32 h): 612 pg.ml^−1 and 429 pg.ml^−1 and 214 pg.ml^−1 and 434 pg.ml^−1 and BLQ (Below the Limit of Quantification (100 pg.ml^−1))
- Plasma concentrations of ivermectin (D 2): 463 pg/mL and 362 pg/mL and 195 pg/mL and 320 pg/mL
- Plasma concentrations of ivermectin (D 3): 334 pg/mL and 201 pg/mL and 126 pg/mL and 202 pg/mL
- Plasma concentrations of ivermectin (D 4): 264 pg.ml^−1 and 133 pg.ml^−1 and BLQ (Below the Limit of Quantification (100 pg.ml^−1)) and 141 pg.ml^−1
- Plasma concentrations of ivermectin (D 5): 200 pg.ml^−1 and BLQ (Below the Limit of Quantification (100 pg.ml^−1)) (2×)
- Plasma concentrations of ivermectin (D 7): 140 pg.ml^−1 and BLQ (Below the Limit of Quantification (100 pg.ml^−1)) (2×)
- Plasma concentrations of ivermectin (D 9): BLQ (Below the Limit of Quantification (100 pg.ml^−1))
- Plasma concentrations of ivermectin (D 14): BLQ (Below the Limit of Quantification (100 pg.ml^−1))
- Plasma concentrations of ivermectin (D 21): BLQ (Below the Limit of Quantification (100 pg.ml^−1))
